In PMC12468009:
Negatives hold for the conditions tested.

Chains of the proteins cited; added tags and fusions are not shown. Residues count along the entry.
UniProt P02769, 25-607: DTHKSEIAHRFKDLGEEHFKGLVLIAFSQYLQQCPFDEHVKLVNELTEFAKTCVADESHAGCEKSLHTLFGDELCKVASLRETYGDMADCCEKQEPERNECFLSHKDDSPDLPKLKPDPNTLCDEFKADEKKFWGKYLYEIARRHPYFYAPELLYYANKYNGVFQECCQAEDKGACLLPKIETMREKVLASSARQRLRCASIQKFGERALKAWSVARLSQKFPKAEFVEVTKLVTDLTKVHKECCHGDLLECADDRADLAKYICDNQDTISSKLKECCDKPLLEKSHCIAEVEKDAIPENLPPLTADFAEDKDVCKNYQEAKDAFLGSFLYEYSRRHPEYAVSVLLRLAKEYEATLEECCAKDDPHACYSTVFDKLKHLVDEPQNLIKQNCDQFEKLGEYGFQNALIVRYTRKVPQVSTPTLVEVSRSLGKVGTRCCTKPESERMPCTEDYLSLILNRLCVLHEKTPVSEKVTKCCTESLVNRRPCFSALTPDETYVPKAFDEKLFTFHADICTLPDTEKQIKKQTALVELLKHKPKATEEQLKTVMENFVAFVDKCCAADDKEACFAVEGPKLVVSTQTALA

Legend:
[1] = molecular target: human serum albumin (HSA) (human) (UniProt P02768); assay: dot blot; conditions: 100 µg HSA on nitrocellulose, 400 pmol aptamer in PBS, 37 °C, 5'-biotin, 1 h, membrane blocked with 5% BSA/0.01% Tween 20, QCM-D: β-LG in PBS pH 3.5, 37 °C, aptamer 0.5 µM in TRIS with 0.1% BSA for immobilization, commercial protein, label: biotin, single-stranded DNA
[2] = molecular target: bovine serum albumin (BSA) (bovine) (UniProt P02769); assay: dot blot; conditions: 100 µg BSA on nitrocellulose, 400 pmol aptamer in PBS, 37 °C, 5'-biotin, 1 h, membrane blocked with 5% BSA/0.01% Tween 20, QCM-D: β-LG in PBS pH 3.5, 37 °C, aptamer 0.5 µM in TRIS with 0.1% BSA for immobilization, commercial protein, label: biotin, single-stranded DNA

GCCTGTTGTGAGCCTCCTAACCTGGTGTGCAAGGTGGACTCTCTTTATCTTGTTGTCAGTCTCATCACCGCATGCTTATTCTTGTCTCCC [Apt 356]
binding result [1]: no binding | binding result [2]: no binding
